Primary screen of a compound library

From ChEMBL document CHEMBL3988442, “University of Dundee, Small-Polar-MMV Screening Library” (2021).

Mtb cholesterol medium: 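Growth of Mycobacterium tuberculosis over 4 days (cholesterol / DPPC medium with tyloxapol); the read-out is not stated. Compounds at 50 µM. The record gives no direction; compounds that gave an IC50 in retests scored well above the rest, so higher reads as more growth inhibition. About 69,000 compounds were tested under these conditions; 0.54% (about 370) showed 50% or more at least once.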
Mtb glucose medium: 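Whole-cell growth test on Mycobacterium tuberculosis, read after 3 days in glucose-containing 7H9 medium; the read-out is not stated. Compounds at 50 µM. Higher reads as more growth inhibition (inferred: compounds with an IC50 in retests scored well above the rest). Of about 69,000 compounds tested this way, about 760 (1.1%) reached 50% or more in at least one test.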

Values are the deposited “Percent Effect”, in %. How 0% and 100% were set is not recorded. Most values in the screen are low, and negative values occur. This is an unselected part of the compounds tested. Two or more numbers in one place are separate tests of the same structure; such repeats can differ widely.

COc1ccc(N2CCN(C(=O)CCCc3cn[nH]c3)CC2=O)cc1 gave Mtb cholesterol medium: 0.443%; Mtb glucose medium: -23.92% and -5.233%. With CC(=O)N1CCN(c2cc(C)ncn2)CC(CO)C1 (centres unmarked) the screen gave Mtb cholesterol medium: 12.1% and -6.658%; Mtb glucose medium: -16.16%. Result for CCOCC(=O)NCC1CCN(Cc2ccsc2)CC1 was Mtb cholesterol medium: -6.339%; Mtb glucose medium: 4.586%. For CN(C)c1nc(NCCc2cnccn2)ncc1F the result was Mtb cholesterol medium: 14.4%; Mtb glucose medium: 10.01%. CCc1c(C)n(C)c2nc3ccccc3n2c1=O read Mtb cholesterol medium: -10.29%; Mtb glucose medium: -10.73% and -5.159%.

For CC(Nc1cccc(Oc2ccc(C#N)cn2)c1)C(=O)NC1CC1 (centres unmarked) the result was Mtb cholesterol medium: 0.2361%; Mtb glucose medium: 5.616%. Result for Cn1cnc2c1C(COCc1cccnc1)N(Cc1nccs1)CC2.O=C(O)C(F)(F)F.O=C(O)C(F)(F)F.O=C(O)C(F)(F)F (centres unmarked) was Mtb cholesterol medium: 10.93%; Mtb glucose medium: -4.248% and 7.306%. For [H][C@@]12CCN(C(=O)C3CC(F)(F)C3)C[C@]1(COCC1CC1)CCO2 the result was Mtb cholesterol medium: 13.71%; Mtb glucose medium: 4.291% and -14.38%. Cc1nnc(C(C)N2CCCN(Cc3ccc(C#N)cc3)CC2)o1 (centres unmarked) gave Mtb cholesterol medium: -3.015%; Mtb glucose medium: 9.731% and -1.343%. O=C(O)C(F)(F)F.O=C(O)C(F)(F)F.[H][C@@]12COC[C@]1(COc1cccnc1)CN(c1cc(OC)ncn1)C2 gave Mtb cholesterol medium: -23.12%; Mtb glucose medium: -5.344%.

Cc1ncsc1C(=O)N(Cc1ccccn1)C1CC1 gave Mtb cholesterol medium: -28.4%; Mtb glucose medium: -39.41%. For CC(=O)NS(=O)(=O)c1ccc(F)c(C(F)(F)F)c1 the result was Mtb cholesterol medium: 7.757%; Mtb glucose medium: 15.15% and 0.9847%. CCC(C)CNC(=O)[C@@H]1CCCN1c1nccc(Nc2ccccc2)n1 (some centres unmarked) read Mtb cholesterol medium: -17.43%; Mtb glucose medium: -16.14%. With Cc1ccc(CNC(C)c2ccc3[nH]c(=O)[nH]c3c2)s1 (centres unmarked) the screen gave Mtb cholesterol medium: -1.809%; Mtb glucose medium: 19.34%. Result for Cc1nc(CN2CCCC(Nc3ncnc4c3CCC4)C2)no1 (centres unmarked) was Mtb cholesterol medium: -24.73%; Mtb glucose medium: -6.773%.

Result for CCc1nnc2n1CCN(Cc1ccc(C(=O)N3CCCC3)cc1)C2 was Mtb cholesterol medium: -10.05%; Mtb glucose medium: -9.018%. With O=C(O)C(F)(F)F.[H][C@@]12CN(C(=O)[C@H]3CCCO3)C[C@]1([H])C(=O)N(CCN1CCCC1)C2 the screen gave Mtb cholesterol medium: -10.55%; Mtb glucose medium: 14.1%. Result for CC(C)n1nc2c(cc1=O)CN(CCOc1ccccc1C#N)CC2 was Mtb cholesterol medium: -14.47%; Mtb glucose medium: -20.35%. Result for CC(C)NC(=O)C1CN(C(=O)COc2ccccc2)CC12CCOCC2 (centres unmarked) was Mtb cholesterol medium: -2.135%; Mtb glucose medium: 2.253%. Result for COCc1nc2cc(NCc3scnc3C)ccc2o1 was Mtb cholesterol medium: 4.437%; Mtb glucose medium: 6.48% and 3.956%.

Cc1noc(C)c1-c1nc(N(C)CCN(C)C)ncc1-c1cnccn1 gave Mtb cholesterol medium: 17.62%; Mtb glucose medium: 23.51%. CCOc1c(Cl)cc(Cl)cc1CNCCCn1ccnc1 read Mtb cholesterol medium: 3.692% and 2.869%; Mtb glucose medium: 4.45%. Result for COC1CCN(CCNC(=O)NC(C)c2ccc(F)c(F)c2)CC1 (centres unmarked) was Mtb cholesterol medium: -28.58%; Mtb glucose medium: -51.58%. c1cnnc(N2CCCC2CNCc2cccs2)c1 (centres unmarked) gave Mtb cholesterol medium: -19.59%; Mtb glucose medium: -17.65%. For Cc1cnn(CC2CCCN2Cc2nnc(C3CC3)n2C)c1 (centres unmarked) the result was Mtb cholesterol medium: 0.8975%; Mtb glucose medium: -3.641%.

CC(C)N(C)Cc1ncn2c1CN(CC(=O)N(C)C)CCC2 gave Mtb cholesterol medium: 12.39%; Mtb glucose medium: -56.52% and -14.12%. Cc1cc(NC2CC3(CCN(Cc4ncccc4F)C3)C2)ncn1 (centres unmarked) gave Mtb cholesterol medium: -3.619% and 1.015%; Mtb glucose medium: -11.56%. With CC(=O)N1CCN(Cc2ccc(OCc3nccn3C)cc2)CC1 the screen gave Mtb cholesterol medium: -9.853%; Mtb glucose medium: 21.3%. Result for COCc1ccccc1NC(=O)NCc1ccc(OCC2CC2)nc1 was Mtb cholesterol medium: 0.304%; Mtb glucose medium: -6.419%. With N#Cc1ccc(Cl)cc1N1CCC(OC2CCOCC2)CC1 the screen gave Mtb cholesterol medium: 3.997%; Mtb glucose medium: 21.1% and 23.05%.

For [H][C@@]12CCN(Cc3scnc3C)C[C@]1(C(=O)N(C)C)CCO2 the result was Mtb cholesterol medium: -23.22% and -5.691%; Mtb glucose medium: 0.5629% and 13.61%. With CNC(=O)c1cccc(NC(=O)c2ccnc(N(C)C)c2)c1C the screen gave Mtb cholesterol medium: 5.235%; Mtb glucose medium: 14.15% and 5.609%. [H][C@@]12C[C@H](C(=O)NCC3CC3)[C@@]([H])(CN(S(=O)(=O)c3cccc(C)c3)C1)O2 gave Mtb cholesterol medium: -6.546%; Mtb glucose medium: -17.93% and 3.279%.

Repeated from the top, 4 entries:

| structure | Mtb cholesterol medium | Mtb glucose medium |
|---|---|---|
| `COc1ccc(N2CCN(C(=O)CCCc3cn[nH]c3)CC2=O)cc1` | 0.443 | -23.92 and -5.233 |
| `CC(=O)N1CCN(c2cc(C)ncn2)CC(CO)C1` (centres unmarked) | 12.1 and -6.658 | -16.16 |
| `CCOCC(=O)NCC1CCN(Cc2ccsc2)CC1` | -6.339 | 4.586 |
| `CN(C)c1nc(NCCc2cnccn2)ncc1F` | 14.4 | 10.01 |